Laboratory results reported in publication PMC12040169 (PLOS Biology, 2025).
This is one part of the list.

System: T1, CTL2-GFP (C. trachomatis L2/434/Bu, GFP-expressing)
T1 construct: L2/434/Bu, GFP-expressing
Parameters: species or system HeLa; Intracellular C. trachomatis growth in HeLa cells, bulk GFP fluorescence relative to DMSO
Settings: bulk GFP, single well; 28.5 h, 10 µM; inhibitor

| Compound | % of control remaining |
| --- | --- |
| CCCc1ccc(N(C)C(=O)c2ccc(OC(F)(F)F)cc2)cc1 [CBK161616] | 120.171% |
| O=C(O)C1(Oc2ccc3ncccc3c2)CCN(C2CCCCC2)CC1 [CBK306591] | 148.185% |
| O=C(Cn1ncc2cccn2c1=O)Nc1cccc(F)c1 [CBK283702] | 141.708% |
| Cc1cccc(-c2nnc(-c3cccc(NC(=O)COc4ccccc4)c3)o2)c1 [CBK269659] | 121.049% |
| Cc1ccc(CN2Cc3cc4ccccc4nc3OC(C)C2=O)o1 (stereo not drawn) [CBK284004] | 96.6598% |
| Cc1cc(C(=O)O)ccc1NC(=O)CCCC(=O)O [CBK267917] | 129.456% |
| CCOC(=O)C1(Cc2ccccc2-c2ccncc2)CCNCC1 [CBK282297] | 137.627% |
| CCCCN(CC(F)(F)F)C(=O)Cc1csc(NC(=O)C(C)C)n1 [CBK306217] | 151.622% |
| O=C(O)c1ccccc1-c1ccccc1C(=O)NCCc1ccccc1 [CBK263394] | 126.562% |
| CCC(=O)N1c2ccc(C(O)CN3CCSCC3)cc2CC1C (stereo not drawn) [CBK283122] | 125.62% |
| O=C(Nc1ccccc1Cl)c1ccc(NCCN2C(=O)c3ccccc3C2=O)c([N+](=O)[O-])c1 [CBK267149] | 163.614% |
| Cn1c(=O)c2c(ncn2CCOc2cnc(-c3cnn(Cc4ccccc4)c3)c(N)n2)n(C)c1=O [CBK145193] | 110.864% |
| CCCNc1nccnc1-c1cc(C)c(O)c(C)c1 [CBK037210] | 170.031% |
| O=C(O)c1ccc(NS(=O)(=O)c2ccc(NC(=O)c3ccccc3Cl)cc2)cc1 [CBK265184] | 105.819% |
| C=CCSC1=N/C(=C\c2ccc(C(=O)O)cc2)C(=O)S1 [CBK265057] | 115.855% |
| C=CCNc1nccnc1-c1ccncc1 [CBK036845] | 127.701% |
| Cn1cc(-c2nc(C3COCCN3C(=O)c3cccc(Cl)c3)no2)cn1 (stereo not drawn) [CBK305443] | 138.151% |
| CN(Cc1nc(-c2ccccc2)no1)C(=O)C1CCOC1 (stereo not drawn) [CBK306755] | 132.24% |
| Cc1ccc(S(=O)(=O)c2cc3c(=O)n4ccccc4nc3n(CCN3CCOCC3)c2=N)cc1 [CBK265637] | 117.599% |
| O=C(Cc1c[nH]cn1)Nc1cccc2cc[nH]c12 [CBK160097] | 116.513% |
| O=C(OCCC1SC(NC2CC3C=CC2C3)=NC1=O)c1cc(C(F)(F)F)cc(C(F)(F)F)c1 (stereo not drawn) [CBK056857T] | 123.955% |
| COc1ccc(-n2cnnn2)cc1 [CBK001946] | 122.832% |
| NC(=O)NS(=O)(=O)c1ccc(NC(=S)NC(=O)c2ccco2)cc1 [CBK261068] | 99.5869% |
| CC(C)c1ccc(/C=C/C(=O)NC2CC2)cc1 [CBK149640] | 54.7098% |
| O=C(NCCSCc1ccc(Cl)cc1Cl)c1ccc(Br)cc1 [CBK264733] | 90.3202% |
| Cc1c(C(C)NCC(O)COc2ccc(C#N)cc2)cnn1C (stereo not drawn) [CBK304881] | 153.254% |

| Compound | % of control remaining |
| --- | --- |
| CCC1(CC)OC(NC23CC4CC(CC(O)(C4)C2)C3)=NC1=O [CBK107938] | 99.6617% |
| O=C(Nc1ccccc1[N+](=O)[O-])c1cc(S(=O)(=O)Nc2ccccn2)ccc1Cl [CBK263229] | 94.0101% |
| Cc1nc2c(C(=O)N3CCNC(=O)C3)cnn2c(C)c1Cc1ccccc1 [CBK162197] | 121.978% |
| Cc1nc(C(=O)N(CCO)Cc2ccccc2)cs1 [CBK304810] | 87.0237% |
| NC1=NC(=O)C(CC(=O)Nc2ccccc2Cl)S1 (stereo not drawn) [CBK039145] | 124.969% |
| COc1ccc(C(C)C)cc1-c1cn2ccnc2c(N2CCN(c3ccncc3)CC2)n1 [CBK066217] | 0% |
| COc1ccc2c(c1)cc(C(=O)NCc1cncn1CC(C)C)n2C [CBK307193] | 117.175% |
| COc1ccccc1-c1nccnc1OCCn1cnc2c1c(=O)n(C)c(=O)n2C [CBK106816] | 89.2515% |
| CS(=O)(=O)N/N=C/c1cccc(Br)c1 [CBK026427] | 131.482% |
| O=C(NC(=O)N1CCOCC1)c1csnn1 [CBK005561] | 119.866% |
| Cc1ccncc1C(=O)N1CCc2ccccc21 [CBK200400] | 111.151% |
| Cc1ccc(/C=C/C(=O)O)cc1S(=O)(=O)NC1CCS(=O)(=O)C1 (stereo not drawn) [CBK264409] | 134.911% |
| COc1ccc(C2NC(C(=O)O)CS2)c(OC)c1 (stereo not drawn) [CBK260908] | 99.4971% |
| COc1ccccc1CNCC1CCN(C(=O)OC(C)(C)C)CC1 [CBK056710] | 141.241% |
| Cc1noc(C)c1CN1CCN(CC(CC(=O)Nc2ccc(F)cc2)C(=O)O)CC1 (stereo not drawn) [CBK286821] | 137.782% |
| CS(=O)(=O)NC1CCCN(Cc2nc(N)c3ccccc3n2)C1 (stereo not drawn) [CBK304889] | 105.196% |
| COCCN(C(=O)c1cc2cc(C)ccc2s1)C1CCS(=O)(=O)C1 (stereo not drawn) [CBK304289] | 103.861% |
| Cc1ccc(N2C(=O)N[C@@H]3CCN(S(=O)(=O)c4ccccc4)[C@@H]3C2=O)cc1 [CBK289285] | 100.302% |
| C=CCn1c(Cc2csc(NC(=O)c3ccc(OC)cc3O)n2)n[nH]c1=S [CBK296752] | 131.443% |
| Cc1nnc(SCC2=NN(c3nc4ccccc4[nH]3)C(=O)C2)s1 [CBK293979] | 120.993% |
| Cc1cccc(-n2c(C3CCCNC3=O)n[nH]c2=S)c1 (stereo not drawn) [CBK012842] | 118.653% |
| O=C(COc1ccc2c(c1)OCO2)NCc1ccccn1 [CBK269983] | 123.424% |
| CC(=O)Nc1ccc(-c2ccc(=O)n3c2[C@@H]2C[C@@H](CN(C(=O)C(C)(C)C)C2)C3)cc1 [CBK289199] | 106.354% |
| CCc1nc2ccc(C(=O)Nc3ccc4c(c3)OCC(=O)N4)cn2c1N(C)CC [CBK145521] | 110.797% |
| COc1ccc(CN2C(=S)N(CC3CCCCC3)[C@H]3[C@@H]2[C@H]2OC(=O)[C@@H]3C[C@H]2O)cc1 [CBK288936] | 86.0592% |
